Structures can show the parent of a compound that is named as a salt.
Experiment: [125I]MIBG levels in normal tissues of xenografted mice
Type: in vivo, BALB/c nu/nu mice

Row | Compound | Decrease in MIBG levels in the liver (20 mg/kg IP) [%] | Increase in MIBG levels in the liver (2 mg/kg IP) [%]
1 | CN(C)CCCC1(c2ccc(F)cc2)OCc2cc(C#N)ccc21 (centres unmarked) [Citalopram, citalopram-HBr] | 35 | –
2 | Fc1ccc([C@@H]2CCNC[C@H]2COc2ccc3c(c2)OCO3)cc1 [Paroxetine, paroxetine-HCl] | – | 17

— PMC7343696 (EJNMMI Research, 2020)
